Test results: paper PMC5228124

Protein sequences, listed by entry. Tags and fused reporters are not part of them.
UniProt Q8BG40: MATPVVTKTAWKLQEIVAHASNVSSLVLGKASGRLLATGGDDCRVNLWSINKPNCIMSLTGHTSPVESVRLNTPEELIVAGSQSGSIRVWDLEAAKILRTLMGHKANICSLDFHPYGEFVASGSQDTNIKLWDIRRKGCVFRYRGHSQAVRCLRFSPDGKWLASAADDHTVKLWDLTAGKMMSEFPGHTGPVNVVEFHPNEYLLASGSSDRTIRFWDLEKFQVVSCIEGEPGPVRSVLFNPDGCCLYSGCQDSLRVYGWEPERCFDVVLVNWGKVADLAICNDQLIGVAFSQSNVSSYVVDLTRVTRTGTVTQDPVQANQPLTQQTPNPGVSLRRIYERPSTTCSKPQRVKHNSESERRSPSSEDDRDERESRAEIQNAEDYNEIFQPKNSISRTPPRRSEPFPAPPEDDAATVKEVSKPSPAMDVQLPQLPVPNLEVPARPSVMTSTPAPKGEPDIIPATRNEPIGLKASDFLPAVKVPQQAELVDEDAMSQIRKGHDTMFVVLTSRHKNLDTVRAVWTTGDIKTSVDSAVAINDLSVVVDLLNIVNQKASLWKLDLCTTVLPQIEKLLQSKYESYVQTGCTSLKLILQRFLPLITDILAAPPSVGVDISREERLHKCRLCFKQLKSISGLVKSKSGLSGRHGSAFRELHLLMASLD
UniProt E9Q7G0: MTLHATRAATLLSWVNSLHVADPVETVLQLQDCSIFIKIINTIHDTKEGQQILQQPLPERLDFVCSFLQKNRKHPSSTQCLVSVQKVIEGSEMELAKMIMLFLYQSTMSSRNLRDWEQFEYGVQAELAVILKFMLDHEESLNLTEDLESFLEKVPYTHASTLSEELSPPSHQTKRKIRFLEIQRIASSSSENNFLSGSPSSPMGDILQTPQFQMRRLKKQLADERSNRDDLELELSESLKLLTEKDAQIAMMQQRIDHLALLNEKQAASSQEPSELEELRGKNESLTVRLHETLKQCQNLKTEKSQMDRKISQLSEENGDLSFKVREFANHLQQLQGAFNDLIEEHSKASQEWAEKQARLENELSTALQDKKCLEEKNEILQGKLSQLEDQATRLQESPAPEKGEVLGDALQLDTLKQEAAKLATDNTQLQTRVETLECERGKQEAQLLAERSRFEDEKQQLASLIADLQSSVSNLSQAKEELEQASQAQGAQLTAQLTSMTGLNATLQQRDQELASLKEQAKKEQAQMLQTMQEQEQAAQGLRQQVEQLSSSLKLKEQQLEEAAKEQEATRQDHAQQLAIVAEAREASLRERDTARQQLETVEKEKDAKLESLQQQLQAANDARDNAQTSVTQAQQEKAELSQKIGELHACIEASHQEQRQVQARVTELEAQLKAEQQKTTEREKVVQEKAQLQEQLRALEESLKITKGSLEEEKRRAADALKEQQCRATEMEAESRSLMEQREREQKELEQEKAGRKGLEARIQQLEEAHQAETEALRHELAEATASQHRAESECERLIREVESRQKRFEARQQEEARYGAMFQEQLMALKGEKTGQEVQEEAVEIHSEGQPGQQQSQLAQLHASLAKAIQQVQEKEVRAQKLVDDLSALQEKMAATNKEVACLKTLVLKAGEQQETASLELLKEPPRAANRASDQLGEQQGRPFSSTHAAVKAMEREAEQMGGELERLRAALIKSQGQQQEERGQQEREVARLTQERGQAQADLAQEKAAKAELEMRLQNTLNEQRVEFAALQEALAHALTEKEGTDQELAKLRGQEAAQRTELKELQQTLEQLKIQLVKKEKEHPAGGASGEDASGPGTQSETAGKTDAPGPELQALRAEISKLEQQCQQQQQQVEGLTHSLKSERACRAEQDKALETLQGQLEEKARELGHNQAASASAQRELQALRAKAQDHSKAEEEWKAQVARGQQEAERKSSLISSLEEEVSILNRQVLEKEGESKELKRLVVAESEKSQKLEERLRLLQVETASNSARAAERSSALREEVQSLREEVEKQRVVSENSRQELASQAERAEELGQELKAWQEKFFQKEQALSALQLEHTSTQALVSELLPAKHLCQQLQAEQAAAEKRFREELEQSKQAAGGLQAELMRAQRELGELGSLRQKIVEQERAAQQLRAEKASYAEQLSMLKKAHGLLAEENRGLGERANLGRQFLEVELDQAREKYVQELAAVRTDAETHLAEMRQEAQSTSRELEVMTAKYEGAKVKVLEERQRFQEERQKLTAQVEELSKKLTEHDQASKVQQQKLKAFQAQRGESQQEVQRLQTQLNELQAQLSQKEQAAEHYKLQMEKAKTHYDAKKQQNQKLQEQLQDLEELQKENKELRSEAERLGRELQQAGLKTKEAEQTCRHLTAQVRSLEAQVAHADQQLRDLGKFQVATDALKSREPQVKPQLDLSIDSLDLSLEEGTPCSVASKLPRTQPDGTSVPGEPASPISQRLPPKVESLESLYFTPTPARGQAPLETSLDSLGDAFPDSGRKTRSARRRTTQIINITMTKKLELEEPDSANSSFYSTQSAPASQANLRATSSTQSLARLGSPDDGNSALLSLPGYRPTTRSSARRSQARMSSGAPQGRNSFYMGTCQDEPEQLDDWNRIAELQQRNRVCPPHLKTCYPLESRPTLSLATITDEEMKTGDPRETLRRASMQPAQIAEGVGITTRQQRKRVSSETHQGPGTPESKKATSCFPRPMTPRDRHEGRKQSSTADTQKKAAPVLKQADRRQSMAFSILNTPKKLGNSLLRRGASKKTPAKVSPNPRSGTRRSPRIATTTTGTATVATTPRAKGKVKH

Target: katanin p80 subunit (KATNB1), endogenous in mouse brain (mouse (endogenous in mouse brain)) (UniProt Q8BG40)
Assay: affinity purification with mass spectrometry; anti-p80 antibody cross-linked to protein G-Sepharose, mouse brain extract, 2 h, three washes, eluate analysed by LC-MS/MS

NuMA (nuclear mitotic apparatus protein), endogenous mouse (from UniProt E9Q7G0 1-2094)
binding: binds

These are yes or no findings as the source states them, for the method shown. In cells and extracts the contact can be indirect. Here binding means that the protein was enriched with, or labelled near, the bait; the list need not be complete.
